Library screening results

Protein sequences, listed by entry. Tags and fused reporters are not part of them.
UniProt E9BF75, entry or part of it: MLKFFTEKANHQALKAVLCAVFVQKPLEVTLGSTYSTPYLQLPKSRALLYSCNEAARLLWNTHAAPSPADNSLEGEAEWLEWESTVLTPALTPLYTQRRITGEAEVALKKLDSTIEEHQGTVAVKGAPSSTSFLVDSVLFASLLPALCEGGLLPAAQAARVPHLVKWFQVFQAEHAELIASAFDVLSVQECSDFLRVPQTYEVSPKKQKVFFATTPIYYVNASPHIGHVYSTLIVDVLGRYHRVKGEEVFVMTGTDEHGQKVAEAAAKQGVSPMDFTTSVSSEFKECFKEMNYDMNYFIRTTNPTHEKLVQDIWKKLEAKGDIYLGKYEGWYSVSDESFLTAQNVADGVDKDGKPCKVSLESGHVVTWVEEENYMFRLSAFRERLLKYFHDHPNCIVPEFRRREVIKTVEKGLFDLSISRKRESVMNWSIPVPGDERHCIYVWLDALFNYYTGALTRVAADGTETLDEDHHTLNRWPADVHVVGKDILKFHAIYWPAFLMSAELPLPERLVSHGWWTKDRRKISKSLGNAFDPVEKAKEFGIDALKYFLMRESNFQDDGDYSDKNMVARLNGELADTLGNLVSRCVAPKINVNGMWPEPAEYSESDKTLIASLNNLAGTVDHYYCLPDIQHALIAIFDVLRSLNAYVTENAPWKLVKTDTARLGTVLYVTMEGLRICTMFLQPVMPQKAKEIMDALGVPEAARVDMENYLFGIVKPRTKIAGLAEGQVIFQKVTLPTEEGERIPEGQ

The values are deposited in ChEMBL (CHEMBL3988442, “University of Dundee, Small-Polar-MMV Screening Library” (2021)).

LdMetRS: 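Primary screen of methionyl-tRNA synthetase; the read-out is not stated. Target: Methionyl-tRNA synthetase (putative), Leishmania donovani (UniProt E9BF75). The test concentration is not given. Values are per cent inhibition. Size under these conditions: about 68,000 compounds, about 24 of them at 50% or above in at least one test.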
Mtb heat-shock: 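Assay on Mycobacterium tuberculosis, filed only as a heat shock assay from Cornell; the read-out is not stated. The concentration is filed as 10 mM, unlikely as a test dose, so the dose is not known. Direction is inferred from retests: higher values go with stronger inhibition. About 69,000 compounds were tested under these conditions; 1.4% (about 930) showed 50% or more at least once.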

Results are percentages, as filed. The controls that fix the scale are not given in the record; negative values are as filed. This is an unselected part of the compounds tested.

Fc1ccc(CNCc2nnc3n2CC(C(F)(F)F)CC3)cc1 (configuration not stated) gave LdMetRS: 15.23%; Mtb heat-shock: -21.45%. With CCCc1n[nH]c(C2CN(C(=O)CCCn3cccn3)CCO2)n1 (configuration not stated) the screen gave LdMetRS: 10.62%; Mtb heat-shock: 10.03%. C[C@]1(O)CN(Cc2cscn2)CC[C@@H]1Oc1cccc(F)c1 gave LdMetRS: 10.59%; Mtb heat-shock: -2.991%. CC(C)CN1C[C@H]2CCN(C(=O)c3ccccn3)CC[C@H]2S1(=O)=O gave LdMetRS: 18.49%. Result for CN(c1ccc(CNc2ccc(Cl)cn2)cc1)S(C)(=O)=O was LdMetRS: 14.25%; Mtb heat-shock: -3.187%. [H][C@@]12CCN(C[C@@H]1C(=O)N1CCOCC1)[C@@H](Cn1cc(C(C)(C)O)nn1)C2 read Mtb heat-shock: -1.845%. Result for Cc1ccc(C2CCCN2S(=O)(=O)N(C)Cc2cnccn2)o1 (configuration not stated) was LdMetRS: 7.759%; Mtb heat-shock: -5.103%. CN1CC(=O)N(c2cccc(F)c2)CC12CCN(S(C)(=O)=O)C2.O=C(O)C(F)(F)F (configuration not stated) gave Mtb heat-shock: -1.241%.

For CC(=O)NCCNC(=O)c1cc(COc2ccccc2)[nH]n1 the result was LdMetRS: 8.683%; Mtb heat-shock: 4.79%. CC(CN(C)C)Nc1nc(O)cc(Cc2ccccc2F)n1 (configuration not stated) read LdMetRS: 9.748%; Mtb heat-shock: 7.031%. With O=C1NCC(C(=O)Nc2ncc(Cc3ccc(F)cc3F)s2)N1 (configuration not stated) the screen gave LdMetRS: 23.36%; Mtb heat-shock: 6.83%. Cc1c[nH]c(C2COCCN2S(=O)(=O)c2cn[nH]c2)n1 (configuration not stated) gave LdMetRS: 9.677%; Mtb heat-shock: 1.089%. Result for [H][C@@]12COC[C@]1([H])[C@@H](OCc1cccnc1)CN2C(=O)c1ccc(C)nc1 was Mtb heat-shock: -12.56%. With O=C(Cc1ccc2c(c1)OCCO2)N1CCCC(n2cccn2)C1 (configuration not stated) the screen gave LdMetRS: 5.556%; Mtb heat-shock: 6.344%. Cc1nc(NC(=O)N(C)Cc2ccoc2)nn1C gave LdMetRS: 11.73%; Mtb heat-shock: -4.41%. For COc1ccc(F)cc1C(=O)Nc1nnc(C)s1 the result was LdMetRS: 4.27%; Mtb heat-shock: 10.23%.

For CCn1cc(CN2CCCN(C(=O)Cc3cccs3)CC2)cn1 the result was LdMetRS: 13.62%; Mtb heat-shock: 1.6%. With Cc1cccc(CN2C[C@@H]3[C@@H](C(=O)NCC(C)C)CCS(=O)(=O)[C@@H]3C2)c1 the screen gave LdMetRS: 14.21%. With O=C(CN1CCCC(Cn2cncn2)C1)NCCC1=CCCCC1 (configuration not stated) the screen gave LdMetRS: 13.8%; Mtb heat-shock: -15.65%. Cc1cc(CN2CCN(c3nn4cc(C)nc4s3)CC2)on1 gave LdMetRS: 15.97%; Mtb heat-shock: -14.74%. For O=C(O)C1(Cc2ccccc2F)CCCN(c2ncnc3[nH]ccc23)C1 (configuration not stated) the result was LdMetRS: 12.93%; Mtb heat-shock: -11.06%. For Cc1cc(C)n(C2CN(CCc3ccncc3)C2)n1 the result was LdMetRS: 11.55%; Mtb heat-shock: -8.211%. For O=C(NCc1ccnc(C2CCCOC2)n1)c1cccs1 (configuration not stated) the result was LdMetRS: 7.188%; Mtb heat-shock: -12.1%. Cc1cc2ccncc2n1CC1(O)CCN(C(=O)c2ccncc2)CC1 read LdMetRS: 14.92%; Mtb heat-shock: 0.3483%.

Result for O=C(O)C(F)(F)F.O=C(O)C(F)(F)F.O=C1CC(c2ccncc2)C2(CCN(CCc3ccccc3)CC2)N1 (configuration not stated) was Mtb heat-shock: -36.05%. Cc1cccc(CN2CCN(C(=O)N(C)C)[C@@H]3CS(=O)(=O)C[C@@H]32)n1 gave LdMetRS: 5.495%. O=C1C[C@H]2[C@@H](CCN2C(=O)Cc2cccs2)N1Cc1cccnc1 read LdMetRS: 9.091%. With CC(C)S(=O)(=O)N1C[C@H]2OC(=O)N(CCc3cccc(Cl)c3)[C@H]2C1 the screen gave LdMetRS: 13.41%. With CC(C)OCCCN(Cc1ccncc1)Cc1cc(F)ccc1F the screen gave LdMetRS: 14.15%. COc1ccc(N2CCOCC3(CCCN(c4cnccn4)C3)C2)cc1 (configuration not stated) gave LdMetRS: 3.65%; Mtb heat-shock: 3.414%. Result for CSc1nc2ccsc2c(=O)n1CC(=O)N1CCCCC1C (configuration not stated) was LdMetRS: -22.65%; Mtb heat-shock: 13.59%. With O=C(NCC1CC1)[C@H]1C[C@@H]2CN(C(=O)NCC3CCCCC3)C[C@H]1O2 the screen gave LdMetRS: 5.435%.

With Cc1nn(CCN2CCSCC2)cc1CNCc1ccccn1 the screen gave LdMetRS: 9.148%; Mtb heat-shock: -39.04%. With Cc1nc(C(C)C)sc1C(=O)NCCSc1nccn1C the screen gave LdMetRS: 16.55%; Mtb heat-shock: -8.964%. For Cc1nc(C2CCCN2Cc2nc(C)c(C)o2)no1 (configuration not stated) the result was LdMetRS: 6.032%; Mtb heat-shock: 7.645%.

For reference, 2 entries once more:

Result for Cc1ccc(C2CCCN2S(=O)(=O)N(C)Cc2cnccn2)o1 (configuration not stated) was LdMetRS: 7.759%; Mtb heat-shock: -5.103%.
Result for CN(c1ccc(CNc2ccc(Cl)cn2)cc1)S(C)(=O)=O was LdMetRS: 14.25%; Mtb heat-shock: -3.187%.